Laboratory results as given in patent US20020192821A1, “Increased functional activity and/or expression of ABC transporters protects against the loss of dopamine neurons associated with Parkinson's disease” (Active Pass Pharmaceuticals, Inc., priority 2001, published 2002).

The chains behind the UniProt entries cited, without tags or fusion partners. Where a name states a change or a piece, a line headed by the entry shows the natural chain unless it says otherwise.
UniProt O15440: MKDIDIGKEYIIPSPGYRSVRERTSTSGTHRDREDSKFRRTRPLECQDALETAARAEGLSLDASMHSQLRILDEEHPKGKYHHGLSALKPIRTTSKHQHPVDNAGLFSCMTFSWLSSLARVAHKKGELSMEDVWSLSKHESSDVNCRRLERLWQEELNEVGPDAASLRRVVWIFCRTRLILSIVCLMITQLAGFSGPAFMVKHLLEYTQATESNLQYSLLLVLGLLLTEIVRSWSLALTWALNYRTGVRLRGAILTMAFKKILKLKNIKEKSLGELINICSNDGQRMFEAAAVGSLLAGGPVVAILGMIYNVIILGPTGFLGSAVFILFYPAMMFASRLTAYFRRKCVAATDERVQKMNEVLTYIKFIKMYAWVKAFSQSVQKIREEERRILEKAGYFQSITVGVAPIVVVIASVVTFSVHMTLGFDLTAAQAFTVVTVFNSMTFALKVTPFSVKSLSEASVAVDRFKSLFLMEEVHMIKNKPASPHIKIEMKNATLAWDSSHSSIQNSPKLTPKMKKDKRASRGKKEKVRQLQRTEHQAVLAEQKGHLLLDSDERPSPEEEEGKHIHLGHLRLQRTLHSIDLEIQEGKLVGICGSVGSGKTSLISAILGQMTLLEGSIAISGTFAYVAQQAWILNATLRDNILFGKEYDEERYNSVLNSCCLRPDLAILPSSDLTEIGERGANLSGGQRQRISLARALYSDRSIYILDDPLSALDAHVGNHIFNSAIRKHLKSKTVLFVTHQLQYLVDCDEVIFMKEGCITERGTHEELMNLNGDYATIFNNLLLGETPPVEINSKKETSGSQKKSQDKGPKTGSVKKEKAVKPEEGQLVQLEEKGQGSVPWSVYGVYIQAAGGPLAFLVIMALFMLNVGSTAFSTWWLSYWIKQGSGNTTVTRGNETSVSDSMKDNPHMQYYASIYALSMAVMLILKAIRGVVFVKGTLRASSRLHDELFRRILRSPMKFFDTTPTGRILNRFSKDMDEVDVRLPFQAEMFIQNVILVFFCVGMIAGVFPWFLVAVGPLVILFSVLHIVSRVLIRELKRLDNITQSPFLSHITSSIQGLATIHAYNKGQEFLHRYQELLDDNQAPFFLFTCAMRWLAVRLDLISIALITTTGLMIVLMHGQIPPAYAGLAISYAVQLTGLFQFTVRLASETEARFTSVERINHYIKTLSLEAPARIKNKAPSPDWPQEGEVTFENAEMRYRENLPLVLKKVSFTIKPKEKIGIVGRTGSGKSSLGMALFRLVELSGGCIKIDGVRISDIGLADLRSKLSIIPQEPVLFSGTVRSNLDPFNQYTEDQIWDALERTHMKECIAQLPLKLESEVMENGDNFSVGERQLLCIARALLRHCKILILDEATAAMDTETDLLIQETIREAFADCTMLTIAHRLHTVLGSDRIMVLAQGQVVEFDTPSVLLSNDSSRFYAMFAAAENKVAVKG
UniProt Q9H172, whole entry: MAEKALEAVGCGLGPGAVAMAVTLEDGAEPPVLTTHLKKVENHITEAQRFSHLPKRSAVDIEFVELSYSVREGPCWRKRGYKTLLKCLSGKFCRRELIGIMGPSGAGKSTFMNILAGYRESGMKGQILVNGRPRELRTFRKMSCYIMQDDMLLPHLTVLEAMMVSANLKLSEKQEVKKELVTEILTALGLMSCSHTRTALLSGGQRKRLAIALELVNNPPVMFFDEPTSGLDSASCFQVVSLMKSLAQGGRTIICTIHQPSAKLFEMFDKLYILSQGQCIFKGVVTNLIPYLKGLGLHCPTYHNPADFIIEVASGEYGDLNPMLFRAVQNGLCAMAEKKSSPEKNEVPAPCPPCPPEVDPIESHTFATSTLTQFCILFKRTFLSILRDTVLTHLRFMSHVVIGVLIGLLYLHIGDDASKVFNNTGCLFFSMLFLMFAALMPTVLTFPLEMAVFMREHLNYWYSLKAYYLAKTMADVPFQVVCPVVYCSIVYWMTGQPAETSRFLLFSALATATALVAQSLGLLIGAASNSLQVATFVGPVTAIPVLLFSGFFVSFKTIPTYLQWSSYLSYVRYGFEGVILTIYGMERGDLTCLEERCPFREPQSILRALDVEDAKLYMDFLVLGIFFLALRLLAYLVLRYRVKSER

Legend:
ABCC5 transporter = ABCC5 transporter (Homo sapiens, UniProt O15440); settings: hDAT-SK-N-MC cells transfected with ABCC5; DA 50 μM for 24 hours; glipizide 250 μM or probenecid 500 μM added two hours prior to DA; MTT; FIG. 2
ABCG4 transporter = target: T1, ABCG4 transporter (Homo sapiens, UniProt Q9H172); assay: Dopamine-induced cytotoxicity (MTT assay) in hDAT cells transiently transfected with ABCG4, in the presence of ABC transporter inhibitors; format: cell-based; settings: hDAT-SK-N-MC cells transfected with ABCG4, DA 50 μM for 24 hours, glipizide 250 μM or probenecid 500 μM added two hours prior to DA, FIG. 2
T1 construct: expressed in transfected cells; host or cells: hDAT-SK-N-MC (human neuroblastoma SK-N-MC stably expressing hDAT), transient transfection, pCEP4 or pcDNA3.1
Procedure: Constructs were prepared containing a polynucleotide sequence (SEQ ID NO:1) encoding ABCC5 transporter polypeptide (SEQ ID NO:2), a polynucleotide sequence (SEQ ID NO:3) encoding ABCG4 transporter polypeptide (SEQ ID NO:4), and polynucleotide sequences encoding two other ABC transporters, ABCx and ABCy.

Cc1cnc(C(=O)NCCc2ccc(S(=O)(=O)NC(=O)NC3CCCCC3)cc2)cn1 [glipizide]
effect on the protective effect of ABCC5 against dopamine-induced toxicity (ABCC5 transporter): reversed the protective effect
effect on the protective effect of ABCG4 against dopamine-induced toxicity (ABCG4 transporter): reversed the protective effect
